Experiment [1] has as its target T1, GST-NAP07 (E. histolytica) (UniProt C4M608).
T1 sequence: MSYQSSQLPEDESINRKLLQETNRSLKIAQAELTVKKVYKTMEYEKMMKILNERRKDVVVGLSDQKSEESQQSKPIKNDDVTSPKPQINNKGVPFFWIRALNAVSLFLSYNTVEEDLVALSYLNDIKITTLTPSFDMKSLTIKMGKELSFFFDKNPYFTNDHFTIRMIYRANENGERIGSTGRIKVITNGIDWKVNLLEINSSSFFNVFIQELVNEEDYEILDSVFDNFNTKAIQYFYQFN
Kind of experiment: pull-down; GST-tagged bait bound from bacterial lysate to glutathione beads and washed; incubated with bacterial lysate containing the His-tagged prey, 15 min at room temperature then 1 h at 4°C; washed with GST-wash buffer (350 mM NaCl); eluted with glutathione; SDS-PAGE, Coomassie; only the target purified.

Experiment [2] has as its target T2, GST-NAP12 (E. histolytica) (UniProt C4M8H9).
T2 sequence: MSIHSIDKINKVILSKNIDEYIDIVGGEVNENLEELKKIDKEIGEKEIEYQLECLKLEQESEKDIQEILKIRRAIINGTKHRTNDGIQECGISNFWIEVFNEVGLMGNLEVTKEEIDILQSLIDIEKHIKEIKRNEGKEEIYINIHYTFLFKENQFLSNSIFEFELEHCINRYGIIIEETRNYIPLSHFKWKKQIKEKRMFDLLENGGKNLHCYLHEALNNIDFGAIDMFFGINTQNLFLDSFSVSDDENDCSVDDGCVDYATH
The experiment is described as above.

The target in experiment [3] is T3, Myc-NAP12 (E. histolytica) (UniProt C4M8H9).
T3 sequence: T2 sequence
Description: co-IP; anti-c-Myc agarose IP from whole-cell lysate of E. histolytica lines overexpressing the Myc-tagged protein, 2 h at 4°C; Western blot of the eluate (custom anti-EhAgo2-2, anti-actin, anti-histone 3). (In general: A western blot detects proteins with antibodies after separation by electrophoresis.)

In experiment [4] the target is T4, Myc-NAP07 (E. histolytica) (UniProt C4M608).
T4 sequence: T1 sequence
The experiment is described as above.

These are yes or no findings as the source states them, for the method shown. Binding seen in cells or lysates may run through a third protein. Where a sequence is shown, tags or fusion partners need not be part of it.

With His-ERM-BP (E. histolytica), the binding result in experiment [1] and in experiment [2] was “no binding” each time.

As to histone 3, the binding entry in experiment [3] and in experiment [4] was “no binding” each time.
